Data reported in PMC5524754, “Angiopoietin-like 4 induces a β-catenin-mediated upregulation of ID3 in fibroblasts to reduce scar collagen expression” (Scientific Reports, 2017).
These are yes or no findings as the source states them, for the method shown. In cells and extracts the contact can be indirect.

Target: T1, cadherin-11 (CDH11), endogenous in human primary dermal fibroblasts (human (endogenous in primary dermal fibroblasts)) (UniProt P55287)
T1 sequence: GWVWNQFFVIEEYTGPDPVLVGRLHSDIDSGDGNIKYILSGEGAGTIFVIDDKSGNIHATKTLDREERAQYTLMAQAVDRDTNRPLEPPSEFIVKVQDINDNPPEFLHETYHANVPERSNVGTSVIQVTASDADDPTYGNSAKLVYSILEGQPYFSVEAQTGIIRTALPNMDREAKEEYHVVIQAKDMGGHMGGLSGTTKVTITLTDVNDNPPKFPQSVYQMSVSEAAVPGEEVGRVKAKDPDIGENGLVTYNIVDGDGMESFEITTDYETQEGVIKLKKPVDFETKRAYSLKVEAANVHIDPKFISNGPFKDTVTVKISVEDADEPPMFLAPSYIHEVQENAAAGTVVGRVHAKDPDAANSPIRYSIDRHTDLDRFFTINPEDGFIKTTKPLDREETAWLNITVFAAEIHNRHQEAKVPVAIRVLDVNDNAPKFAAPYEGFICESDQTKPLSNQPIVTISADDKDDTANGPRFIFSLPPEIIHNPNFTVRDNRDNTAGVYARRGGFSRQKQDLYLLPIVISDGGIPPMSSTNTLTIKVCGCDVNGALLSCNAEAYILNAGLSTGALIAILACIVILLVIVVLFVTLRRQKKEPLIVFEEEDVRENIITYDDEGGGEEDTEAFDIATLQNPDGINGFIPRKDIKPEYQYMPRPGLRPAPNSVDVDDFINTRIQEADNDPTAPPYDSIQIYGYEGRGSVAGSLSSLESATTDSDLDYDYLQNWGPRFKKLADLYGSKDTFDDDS
Assay: co-IP; immunoprecipitation with anti-Frizzled and anti-CDH11 from lysates of human fibroblasts; both proteins endogenous

“Frizzled (Wnt receptor), endogenous in human fibroblasts” was tested, and the binding was “no binding”.
